# Values of other authors as cited in patent US4997926A, “Deaminase-stable anti-retroviral 2-halo-2',3'-dideoxy” (Scripps Clinic and Research Foundation, priority 1987, dated 1991).
# At least one read-out could not be matched to a standard name with certainty.
# Conditions: read-out: plasma concentrations; infusion 0.1-0.5 mg/kg/day; cited from earlier work
structure (smiles),measurement,value
Nc1nc(Cl)nc2c1ncn2[C@H]1C[C@H](O)[C@@H](CO)O1 [2-chloro-2'-deoxyadenosine],concentration,10 to 50 nM
